Experimental data reported in publication PMC9731691.
No constants are given. Whether binding was seen depends on the method and setting. In cells and extracts the contact can be indirect. Some entries that bind do so weakly or less than the wild type.

Protein sequences, listed by entry. Tags and fused reporters are not part of them.
UniProt P35222: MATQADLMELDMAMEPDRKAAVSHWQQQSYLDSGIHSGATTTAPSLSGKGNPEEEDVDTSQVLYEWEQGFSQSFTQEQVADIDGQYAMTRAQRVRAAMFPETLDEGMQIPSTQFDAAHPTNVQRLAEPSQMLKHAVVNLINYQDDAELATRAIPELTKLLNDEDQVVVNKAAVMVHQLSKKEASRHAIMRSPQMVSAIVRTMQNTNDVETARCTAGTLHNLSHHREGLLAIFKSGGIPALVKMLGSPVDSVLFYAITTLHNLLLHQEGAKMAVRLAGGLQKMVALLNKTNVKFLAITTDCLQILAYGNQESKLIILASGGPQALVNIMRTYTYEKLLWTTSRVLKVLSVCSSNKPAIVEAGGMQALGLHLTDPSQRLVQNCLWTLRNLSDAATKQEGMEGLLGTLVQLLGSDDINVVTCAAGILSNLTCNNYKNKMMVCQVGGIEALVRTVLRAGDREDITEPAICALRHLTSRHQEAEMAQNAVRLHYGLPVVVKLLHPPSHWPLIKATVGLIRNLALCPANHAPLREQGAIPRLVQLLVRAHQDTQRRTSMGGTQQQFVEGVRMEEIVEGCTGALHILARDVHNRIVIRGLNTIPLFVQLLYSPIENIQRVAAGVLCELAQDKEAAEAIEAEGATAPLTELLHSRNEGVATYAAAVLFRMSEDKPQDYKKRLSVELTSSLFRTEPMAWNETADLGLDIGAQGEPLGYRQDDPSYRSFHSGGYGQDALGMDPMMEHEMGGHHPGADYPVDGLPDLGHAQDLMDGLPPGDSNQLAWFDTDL

Biological target: T1, Ran‐binding protein 3 (RanBP3) (human) (UniProt Q9H6Z4)
T1 sequence: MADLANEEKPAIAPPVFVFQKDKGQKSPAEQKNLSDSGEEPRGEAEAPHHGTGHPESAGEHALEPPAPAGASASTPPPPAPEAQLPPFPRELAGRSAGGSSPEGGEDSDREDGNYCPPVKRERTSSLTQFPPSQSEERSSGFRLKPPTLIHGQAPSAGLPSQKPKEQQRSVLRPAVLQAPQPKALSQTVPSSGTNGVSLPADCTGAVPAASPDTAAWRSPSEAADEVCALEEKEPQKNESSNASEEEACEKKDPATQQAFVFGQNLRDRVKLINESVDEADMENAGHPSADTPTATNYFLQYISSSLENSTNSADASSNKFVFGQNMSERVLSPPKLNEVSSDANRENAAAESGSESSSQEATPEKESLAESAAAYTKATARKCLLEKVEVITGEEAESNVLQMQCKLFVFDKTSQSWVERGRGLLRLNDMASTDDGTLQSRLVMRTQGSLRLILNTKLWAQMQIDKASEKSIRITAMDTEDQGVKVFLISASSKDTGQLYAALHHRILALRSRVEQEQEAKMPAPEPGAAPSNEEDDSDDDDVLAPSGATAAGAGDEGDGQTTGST
Experiment: co-IP; CRC cells cotransfected with β-catenin- and RanBP3-expressing plasmids, with or without NU2058; lysate precleared with IgG and protein A/G Sepharose beads at 4 °C for 1 h; primary antibody overnight at 4 °C, beads 4 h, washed with PBS three times; Western blotting; which protein was precipitated not given

binding: binds
Substance: β‐catenin (from UniProt P35222 1-781)
